Laboratory results: PubChem BioAssay AID602196 (INSERM, 2012)

Test: 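Modifiers of cisplatin sensitivity in A549 cells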
System: human A549 lung cancer cells
Reagents: siRNA pair against human genes
Time to read-out: 48 h transfection before cisplatin; time from cisplatin to read-out not stated
Challenge: cisplatin at a dose killing half of control-siRNA cells; exact dose and duration not given
Measurement: 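Cisplatin cell death as a shift from the 50% death seen with control siRNA; siRNAs toxic or growth-blocking alone scored 0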
Reading the numbers: two-siRNA summed score (-2 to +2): higher = both siRNAs protect from cisplatin killing; -2 means both sensitise; mean protection from cisplatin (shift in death) and protection from cisplatin (shift in death), siRNA C and protection from cisplatin (shift in death), siRNA D: higher = protection from cisplatin killing
Call rule: 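siRNAs harmful alone (LDH or WST-1) get 0; others get +1 for less and -1 for more cisplatin killing; genes are active when the two siRNAs give the same sign, summing to ±2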
Calls: active = both siRNAs shift cisplatin killing the same way; inactive = no consistent shift, or siRNA harmful alone
The deposit covers about 23,000 reagents; this is a random part of them. Of all reagents, 455 (2%) are marked active. 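Active includes both protection and sensitisation; some change values fall well beyond the stated -50 to +50 range.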 Unmarked entries are inactive. Reagents against one gene are numbered here. No sequences are given here. The record does not give: the amount of reagent.

| gene | reagent | two-siRNA summed score (-2 to +2) | mean protection from cisplatin (shift in death) (%) | protection from cisplatin (shift in death), siRNA C (%) | protection from cisplatin (shift in death), siRNA D (%) |
| --- | --- | --- | --- | --- | --- |
| LINC00158 | 1 | 0 | -5.6 | -0.1 | -11.1 |
| TMC2 | 1 | 0 | 7.3 | 3.2 | 11.5 |
| GPR160 | 1 | 0 | -3.5 | -3.7 | -3.2 |
| SEMA4B | 1 | 0 | 12.3 | 22.7 | 1.8 |
| POLR3H | 1 | 0 | 8.4 | 11.4 | 5.4 |
| POLR3H | 2 | 0 | 8.4 | 15.4 | 1.4 |
| GPS2 | 1 | 0 | 3.3 | 27.4 | -20.9 |
| LOC440062 | 1 | 1 | 16 | 15.7 | 16.4 |
| BAG5 | 1 | 0 | 13.5 | 18.1 | 8.9 |
| SLC6A17 | 1 | 0 | 5.4 | 15.6 | -4.9 |
| SLC37A4 | 1 | -2 (active) | -18.1 | -19.5 | -16.6 |
| LINC02072 | 1 | 0 | 11.5 | 4.8 | 18.2 |
| NFKB2 | 1 | 0 | -1.8 | 14.1 | -17.8 |
| ZNF767P | 1 | 0 | -2 | 16.9 | -20.9 |
| SLC6A15 | 1 | 0 | 5.3 | 4.4 | 6.3 |
| MTX2 | 1 | 1 | 6 | -6.7 | 18.7 |
| DHX35 | 1 | 0 | 8.9 | 13.1 | 4.8 |
| ARHGAP6 | 1 | 0 | 3.2 | 10.6 | -4.3 |
| FAM3A | 1 | -1 | -17.2 | -18.1 | -16.3 |
| MED13L | 1 | 0 | -10 | -0.8 | -19.2 |
| SIGLEC8 | 1 | 0 | -6.2 | -1 | -11.4 |
| SFSWAP | 1 | 0 | 5.6 | 10.2 | 1.1 |
| TREX2 | 1 | 0 | -10.6 | -10.8 | -10.4 |
| PGLYRP4 | 1 | 0 | 3.8 | 0.6 | 7.1 |
| GBA2 | 1 | 0 | -7.5 | -9.6 | -5.4 |
| CD2BP2 | 1 | 1 | 13.3 | 8.4 | 18.2 |
| APBB1 | 1 | 1 | 22.5 | 25.1 | 19.9 |
| ATP6V1B2 | 1 | 0 | 3 | 12.9 | -6.9 |
| ATP9A | 1 | 0 | 0.8 | 14.5 | -12.9 |
| HOXB2 | 1 | 0 | 14.6 | 15.3 | 13.9 |
| EIF2B2 | 1 | -1 | -6.1 | 5.2 | -17.3 |
| FSCN1 | 1 | 0 | 18.8 | 10.3 | 27.3 |
| RGS7 | 1 | 0 | 8.7 | 8 | 9.4 |
| GCSAML | 1 | 0 | 6 | 5.9 | 6.1 |
| ZACN | 1 | 0 | -7.4 | -9.1 | -5.8 |
| BNIPL | 1 | 0 | 4.7 | 7.5 | 1.8 |
| GTF2IRD1 | 1 | 0 | 9.5 | 4.9 | 14 |
| MAPKAPK5 | 1 | 0 | 1 | -0.3 | 2.3 |
| PLA2G4A | 1 | 1 | 10 | 20.2 | -0.2 |
